The test deals with catalytic domain of Calcineurin (Cn A), residues 2-347 with Y341S, L343A, M347D (UniProt Q08209). The test is described as follows: fluorescence polarisation; competition: variable concentrations of non-labeled peptide added to 100 nM FITC-labeled PVIVIT peptide and 4 uM Cn A, 96-well plate, triplicate; fitted to a single site inhibition model; both purified. On the technique in general: In fluorescence polarisation assays a small probe gives low polarisation when free and higher when bound to something large.

Results are given in words; binding and its absence hold for the method and conditions named.

B1: rbmCAPN11_3 (peptide)
peptide: TFWTNPQYRIKLEEAD
modifications: N-terminal acetylation, C-terminal amidation
Turning to B1, the binding result is “no binding”.

B2: CAPN11 peptide (peptide)
peptide: TTAMNPQFFVQIPRTA
modifications: N-terminal acetylation, C-terminal amidation
Regarding B2, the binding entry is “no binding”.

B3: rbmCAPN11_2 (peptide)
peptide: TFHTNPQYRIKLEEPD
modifications: N-terminal acetylation, C-terminal amidation
On to B3, for which the binding result was “no binding”.

The record behind these values is PMC9928118, “Funneling modulatory peptide design with generative models: Discovery and characterization of disruptors of calcineurin protein-protein interactions” (PLOS Computational Biology, 2023).
